# Experimental data taken from PubChem BioAssay AID2685 (National Center for Advancing Translational Sciences (NCATS), 2010).
# Among all 320,000 compounds or so, about 2,100 (0.66%) were called active. The inconclusive results got no clear call from the source; some entries with a clear call stand among them for comparison. Calls come from the whole dose curve; as a rule, active = well fitted inhibition curve with a large enough effect in the signal ratio, with a control signal flat (not every such curve was filed as active); inconclusive = small, poorly fitted or top-dose-only effect, or effect the other way, or a change in a side signal; inactive = flat fitted curve, though single readings scatter; the % refers to the signal ratio. Potencies beside an inconclusive call are fits to weak or partial responses and may not hold up.
# Test: qHTS Assay for Lipid Storage Modulators in Drosophila S3 Cells
# Conditions: BODIPY lipid droplet fluorescence, 18-24 h, cells fed with added oleic acid; lipid storage change, negative = inhibition: at 46.1 µM (top of the series) unless noted
# Method in brief: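 Drosophila S3 cells loaded with oleic acid (400 uM, as added) and compounds at several concentrations; lipid droplets imaged by 488-nm laser-scanning cytometry, 500–530 nm intensity and object ratio to cell channel. Percent activity normalized to 20 uM Triacsin C.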
# % is set by controls: 0 for no effect and ±100 for the full control effect; potency is the fitted concentration of half-maximal effect.
Compound,Potency,"lipid storage change, negative = inhibition"
N#Cc1cc(C(=O)c2cc(Br)ccc2O)cn(C2CCCCC2)c1=O,"inconclusive: 25.9 µM [activator, partial curve]",
O=C(NCCCCc1ccccc1)C1CC(c2ccc([N+](=O)[O-])cc2)=NO1 (configuration not stated),,inconclusive: -0.278%
COC(=O)c1ccc(NC(=O)c2cc(-c3ccccn3)nc3ccccc23)cc1,"inconclusive: 0.092 µM [falling, full curve, poor fit]",
O=[N+]([O-])c1cccc(CN2CCN(Cc3ccco3)CC2)c1,"inconclusive: 0.651 µM [falling, single point]",
CC(C)(C)OC(=O)n1cc(C(=O)c2ccccc2O)cn1,"inconclusive: 16.4 µM [activator, partial curve]",
CC(=O)NC1C(Oc2ccc(C=O)cc2)OC(COC(C)=O)C(OC(C)=O)C1OC(C)=O (configuration not stated),,inconclusive: -32.9%
Cc1cccc(N2C(=O)CC(N(C(=O)c3ccco3)c3cccc(C)c3)C2=O)c1 (configuration not stated),,inactive
COc1ccc(CCNS(=O)(=O)c2ccc3c(c2)OCCO3)cc1,"inconclusive: 0.92 µM [falling, full curve, poor fit]",
Cc1c(NC(=O)N(C)c2ccccc2)c(=O)n(-c2ccccc2)n1C,"inconclusive: 0.058 µM [falling, full curve]",
COc1ccc(CNC(=O)C2CCC(=O)N(CC3CCCCC3)C2)cc1 (configuration not stated),,inconclusive: 49.3%
CC1(C)N=C(SCC(=O)Nc2ccc(Cl)cc2Cl)C(c2ccccc2)=N1,,inconclusive: 194%
CCN1C(=O)[C@@H]2[C@@H](c3ccc(-c4ccc(F)cc4)c(OC)c3)N3CCCC[C@@]3(C(=O)OC)[C@@H]2C1=O,"inconclusive: 20.6 µM [falling, single point]",
CCOc1ccc2nc(NC(=O)c3cccc(-c4cc5ccccc5oc4=O)c3)sc2c1,"inconclusive: 0.82 µM [activator, full curve, poor fit]",
CCn1c(=O)c2sccc2n2c(CCCC(=O)N3CCN(c4ccccn4)CC3)nnc12,active: 23.1 µM,
CC1CC1C(=O)OCc1cc(=O)n2cc(Br)ccc2n1 (configuration not stated),,inconclusive: 32.5%
COc1ccccc1CNC(=O)CN(c1ccc(C)cc1)S(=O)(=O)c1c(C)nn(C)c1C,"inconclusive: 6.51 µM [activator, partial curve]",
CC1CCCCC1NC(=O)/C(C#N)=C/C=C/c1ccccc1[N+](=O)[O-] (configuration not stated),,inconclusive: -68.8%
COC(=O)c1ccc(OCC(O)CN2C(=O)NC(C)(C)C2=O)cc1 (configuration not stated),"inconclusive: 32.6 µM [falling, single point]",
O=C(NCCOc1ccccc1)c1ccc2n[nH]nc2c1,,inconclusive: 14%
S=C(Nc1ccccc1)N1CCC(C2CCN(C(=S)Nc3ccccc3)CC2)CC1,,inconclusive: 10.2%
O=C(/C=C/c1ccc([N+](=O)[O-])cc1)NCc1cccnc1,,inconclusive: -9.17%
CCCc1cc(=O)[nH]c(SCC(=O)N(CC)C2CCS(=O)(=O)C2)n1 (configuration not stated),,inconclusive: -21.5%
COCCOC(=O)C1=C(C)NC(=S)NC1c1cccs1 (configuration not stated),,inconclusive: 23.1%
CN1CCc2cc3c(c4c2C1CC41CCC(=NO)CC1)OCO3 (configuration not stated),,inconclusive: 33%
COc1ccc(N(C(=O)CNC(=O)c2ccco2)C(C(=O)NCC2CCCO2)c2ccccc2)c(OC)c1 (configuration not stated),,inconclusive: -41.7%
Oc1ccccc1CNn1cnnc1,"inconclusive: 0.0052 µM [activator, full curve, poor fit]",

Compound,Potency,"lipid storage change, negative = inhibition"
COc1ccc(CCNS(=O)(=O)c2ccc(Cl)cc2)cc1OC,active: 1.64 µM,
CC(C)OC(=O)C1C(=O)CC(C)(O)C(C(=O)OC(C)C)C1c1ccc([N+](=O)[O-])cc1 (configuration not stated),,inconclusive: -13%
COc1cc(C(=O)NCC(c2ccc(F)cc2)N2CCOCC2)ccc1OCc1ccccc1Cl (configuration not stated),"inconclusive: 0.517 µM [rising, partial curve, poor fit]",
FC(F)(F)c1cccc(OCCOCCn2cncn2)c1,,inconclusive: -8.72%
CC1(C)CC(=O)C2=C(C1)N(Cc1ccco1)C(=O)C2(O)C(F)(F)F (configuration not stated),,inconclusive: -6.76%
CCC(=O)N1c2ccc(S(=O)(=O)CCC(=O)Nc3ccc(OC)cc3OC)cc2CC1C (configuration not stated),,inconclusive: 63.3%
CN1CCN(C(=O)CN(C2CCCCC2)S(=O)(=O)c2ccccc2)CC1,"inconclusive: 0.116 µM [falling, full curve, poor fit]",
CC1CCN(CCNC(=S)Nc2ccc(Cl)cc2)CC1,,inactive
CCCSc1nc2c(cnn2-c2ccccc2)c(=O)[nH]1,,inconclusive: 64.6%
CC(=O)c1c(C)n(-c2ccccc2)c2ccc(OCC(O)CN3CCOCC3)cc12 (configuration not stated),,inconclusive: 14.9%
C[C@H](NC(=O)OCc1ccccc1)c1nnc([C@H](Cc2ccccc2)NC(=O)OC(C)(C)C)o1,,inconclusive: -14.7%
CC(=O)c1sc(NC(=O)Cc2c(F)cccc2Cl)nc1C,"inconclusive: 6.51 µM [falling, single point]",
O=C(NCc1cccnc1)c1ccc([N+](=O)[O-])o1,,inconclusive: -14.6%
COc1ccc(C2=NN(C(=O)c3ccco3)C(c3ccco3)C2)cc1OC (configuration not stated),,inconclusive: 134%
COC(=O)CCNc1ccc2c(c1)OCCO2,,inconclusive: -45.4%
COc1ccc(C(=O)Nc2ccc3c(c2)n(C)c(=O)n3C)cc1OC,,inconclusive: 58.9%
CCOC(=O)CNC(=O)N1CCCC(CNS(=O)(=O)c2cccs2)C1 (configuration not stated),,inactive
O=C(Nc1ccon1)c1ccc2c(c1)OCO2,"inconclusive: 6.51 µM [activator, single point]",
NC(=O)c1ccccc1NC(=O)N1CCOCC1,"inconclusive: 29.1 µM [activator, partial curve]",
COc1ccc(NC(=O)CN2C(=O)NC(c3ccccc3)(c3ccccc3)C2=O)cc1,"inconclusive: 6.51 µM [activator, single point]",
COc1ccc(OC)c(NC(=O)C2CCCN2S(=O)(=O)c2cccc3nsnc23)c1 (configuration not stated),,inconclusive: 14%
Cc1ccc(/C=C/C(=O)NCc2ccc3c(c2)OCO3)o1,"inconclusive: 3.66 µM [activator, single point]",
CC(=O)c1cccc(NC(=O)C(OC(=O)c2ccccc2NS(=O)(=O)c2cccs2)c2ccccc2)c1 (configuration not stated),,inconclusive: 30.1%
CC1CCN(CCOc2ccc(C(=O)c3ccccc3)cc2)CC1,,inconclusive: 17.5%
Fc1ccc(-n2cc(-c3ccccc3)c3c(=S)nc[nH]c32)cc1,,inconclusive: 6.42%
CNC(=S)N/N=C/c1cc(C)n(-c2ccc(Cl)c(Cl)c2)c1C,,inconclusive: -3.96%

Compound,Potency,"lipid storage change, negative = inhibition"
Cn1ncc2c(N3CCCCC3)nc(NCCCO)nc21,"inconclusive: 29.1 µM [activator, single point]",
CC(=O)N1CCN(c2nc(N)c(C#N)c(CC#N)c2C#N)CC1,,inconclusive: 4.61%
CCOc1ccc(C(=O)NN2CCOCC2)cc1,,inconclusive: 17.9%
C=CCn1c(SCC(=O)Nc2nc3ccccc3s2)nnc1-c1ccccc1O,,inconclusive: -48.9%
Fc1ccccc1COc1ccc(-c2nnn(Cc3ccccc3F)n2)cc1,,inconclusive: 12.1%
Cc1cccc(CN2CCC(C(N)=O)CC2)c1,,inconclusive: -3.81%
CCCNC(=O)Nc1nccs1,"inconclusive: 7.31 µM [activator, partial curve]",
CCc1ccc(C(=O)C(C)OC(=O)c2nn(C)c(=O)c3ccccc23)cc1 (configuration not stated),,inconclusive: 32.8%
CC(C)COC(=O)N1CC(O)CC1C(=O)Nc1ccc2c(c1)OCO2 (configuration not stated),"inconclusive: 0.411 µM [activator, full curve, poor fit]",
CC(=O)Nc1ccc(NC(=O)c2cccc(C(=O)OC(C)C)n2)cc1,,inconclusive: 23.4%
O=C(NNc1cccc(Cl)n1)Nc1cccc(C(F)(F)F)c1,,inconclusive: -34.1%
COc1ccc(COCC(O)CN2CCN(S(=O)(=O)c3ccc(C(C)C)cc3)CC2)cc1 (configuration not stated),,inconclusive: -18.4%
O=C(O)CSc1nc(-c2ccc(Cl)cc2)nc2c1oc1ccccc12,,inconclusive: 27.2%
O=C(Nc1cccc(O)c1)c1ccc(C(F)(F)F)cc1,,inconclusive: 20.5%
Cc1sc2ncnc(N3CCC(C(=O)N(C)CC(=O)Nc4ccccc4Br)CC3)c2c1C,,inconclusive: -18.9%
N#C/C(=C\c1ccc(-c2ccc(S(=O)(=O)N3CCOCC3)cc2)o1)C(=O)NC1CC1,,inconclusive: 11.6%
CC1(C)CC(=O)c2sc(NC(=O)CN3CCCCC3)nc2C1,"inconclusive: 0.58 µM [activator, full curve]",
O=[N+]([O-])c1cccc(-c2ncc3ccccn23)c1,,inconclusive: -4.9%
CNC(=S)N=Nc1c(O)[nH]c2ccccc12,,inconclusive: 25.1%
C#CCNC(=O)C1=C[C@@H](c2ccc(C(F)(F)F)cc2)C[C@@H](OCCCCO)O1,,inconclusive: 0.653%
O=C(CSc1ccccc1F)NC(=O)NCc1ccco1,"inconclusive: 0.0052 µM [activator, full curve, poor fit]",
CC(=O)Nc1ccc(NC(=O)/C=C/c2ccc3c(c2)OCO3)cc1,,inconclusive: -18.2%
O=C(CN1C(=O)CSc2ccc(S(=O)(=O)N3CCOCC3)cc21)NCCCN1CCCCC1,,inconclusive: 21.4%
C=CCN(C(=O)Cn1c(C(=O)OC)cc2oc(C)cc21)c1ccccc1,,inactive
[O-]/[N+](=C/c1ccccc1)c1ccccc1,,inconclusive: -9.29%

# 2 consecutive records out of the list so far:
Compound,Potency,"lipid storage change, negative = inhibition"
CNC(=S)N=Nc1c(O)[nH]c2ccccc12,,inconclusive: 25.1%
C#CCNC(=O)C1=C[C@@H](c2ccc(C(F)(F)F)cc2)C[C@@H](OCCCCO)O1,,inconclusive: 0.653%
